Reference: patent US20250042940A1 (CREIGHTON UNIVERSITY, published 2025)
Results are given in words; binding and its absence hold for the method and conditions named. Binding seen in cells or lysates may run through a third protein. Some entries that bind do so weakly or less than the wild type.

T1: 14-3-3ε (endogenous, in human SCC12B.2 squamous cell carcinoma cells) (human), P62258
T1 chain: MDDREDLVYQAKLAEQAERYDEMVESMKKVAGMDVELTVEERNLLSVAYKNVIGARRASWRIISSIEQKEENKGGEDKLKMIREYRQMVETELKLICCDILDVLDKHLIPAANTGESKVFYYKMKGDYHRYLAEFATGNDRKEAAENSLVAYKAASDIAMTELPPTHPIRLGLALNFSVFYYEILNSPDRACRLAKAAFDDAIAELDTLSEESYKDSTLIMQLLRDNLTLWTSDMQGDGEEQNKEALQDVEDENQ


Legend:
[1] = biological target: T1, 14-3-3ε (endogenous, in human SCC12B.2 …); assay: co-immunoprecipitation with anti-14-3-3ε antibody on Protein G Dynabeads from SCC12B.2 cell lysate, immunoblot; cells treated 48 h with vehicle or ES1P2 (20 µM); details: remark: other sources report otherwise
[2] = biological target: 14-3-3ε (endogenous, in human SCC12B.2 squamous cell carcinoma cells) (human) (UniProt P62258); assay: as above

Row | binding [1] | binding [2] | Binder
1 | binds | – | 14-3-3ζ (endogenous, in human SCC cells), P63104 1-245 (protein, UniProt P63104 1-245, looked up) MDKNELVQKAKLAEQAERYDDMAACMKSVTEQGAELSNEERNLLSVAYKNVVGARRSSWRVVSSIEQKTEGAEKKQQMAREYREKIETELRDICNDVLSLLEKFLIPNASQAESKVFYLKMKGDYYRYLAEVAAGDDKKGIVDQSQQAYQEAFEISKKEMQPTHPIRLGLALNFSVFYYEILNSPEKACSLAKTAFDEAIAELDTLSEESYKDSTLIMQLLRDNLTLWTSDTQGDEAEAGEGGEN
2 | – | binds | 14-3-3γ (endogenous, in human SCC cells) (protein, UniProt P61981 1-247, looked up) MVDREQLVQKARLAEQAERYDDMAAAMKNVTELNEPLSNEERNLLSVAYKNVVGARRSSWRVISSIEQKTSADGNEKKIEMVRAYREKIEKELEAVCQDVLSLLDNYLIKNCSETQYESKVFYLKMKGDYYRYLAEVATGEKRATVVESSEKAYSEAHEISKEHMQPTHPIRLGLALNYSVFYYEIQNAPEQACHLAKTAFDDAIAELDTLNEDSYKDSTLIMQLLRDNLTLWTSDQQDDDGGEGNN
